Results taken from the supplement of paper PMC12067093, “Discovery and optimisation of a covalent ligand for TRIM25 and its application to targeted protein ubiquitination” (Chemical Science, 2025).
The list shows a part of the results.
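Also: competitive chemoproteomic profiling in live THP-1 cells with an iodoacetamide desthiobiotin (IA-DTB) probe, comparing probe-labelled peptide intensities in compound-treated cells against DMSO-treated controls.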

Amino acid sequences for entries named in this document (tags omitted). A change or cut given only in a name is not applied to a line headed by its entry.
UniProt Q4VC31: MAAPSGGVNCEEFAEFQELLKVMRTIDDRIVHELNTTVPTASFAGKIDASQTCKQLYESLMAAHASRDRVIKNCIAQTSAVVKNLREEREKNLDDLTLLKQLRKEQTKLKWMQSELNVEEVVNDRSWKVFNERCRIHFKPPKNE
UniProt Q9Y6W3: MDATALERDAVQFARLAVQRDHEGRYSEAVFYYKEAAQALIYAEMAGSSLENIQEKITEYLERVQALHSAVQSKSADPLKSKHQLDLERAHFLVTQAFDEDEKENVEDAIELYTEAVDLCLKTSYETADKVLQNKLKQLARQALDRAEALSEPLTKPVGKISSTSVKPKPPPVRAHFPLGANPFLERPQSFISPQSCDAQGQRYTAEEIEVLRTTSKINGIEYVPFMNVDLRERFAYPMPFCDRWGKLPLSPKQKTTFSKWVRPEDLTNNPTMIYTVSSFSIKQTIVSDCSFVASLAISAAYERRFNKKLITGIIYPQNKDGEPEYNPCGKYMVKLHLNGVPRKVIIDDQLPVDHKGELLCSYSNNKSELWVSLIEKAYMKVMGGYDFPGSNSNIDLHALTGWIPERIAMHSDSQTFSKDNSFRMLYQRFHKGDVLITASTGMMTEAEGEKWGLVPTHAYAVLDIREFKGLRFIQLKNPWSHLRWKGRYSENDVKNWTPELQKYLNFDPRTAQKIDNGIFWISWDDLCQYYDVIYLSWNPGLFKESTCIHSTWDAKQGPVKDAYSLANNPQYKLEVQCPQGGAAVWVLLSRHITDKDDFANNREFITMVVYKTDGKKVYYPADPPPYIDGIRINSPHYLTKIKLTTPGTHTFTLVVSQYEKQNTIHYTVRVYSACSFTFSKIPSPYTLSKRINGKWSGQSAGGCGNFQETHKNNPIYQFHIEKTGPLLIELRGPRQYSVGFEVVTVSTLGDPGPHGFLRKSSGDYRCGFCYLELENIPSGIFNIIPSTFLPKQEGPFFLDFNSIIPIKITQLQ
UniProt P49368: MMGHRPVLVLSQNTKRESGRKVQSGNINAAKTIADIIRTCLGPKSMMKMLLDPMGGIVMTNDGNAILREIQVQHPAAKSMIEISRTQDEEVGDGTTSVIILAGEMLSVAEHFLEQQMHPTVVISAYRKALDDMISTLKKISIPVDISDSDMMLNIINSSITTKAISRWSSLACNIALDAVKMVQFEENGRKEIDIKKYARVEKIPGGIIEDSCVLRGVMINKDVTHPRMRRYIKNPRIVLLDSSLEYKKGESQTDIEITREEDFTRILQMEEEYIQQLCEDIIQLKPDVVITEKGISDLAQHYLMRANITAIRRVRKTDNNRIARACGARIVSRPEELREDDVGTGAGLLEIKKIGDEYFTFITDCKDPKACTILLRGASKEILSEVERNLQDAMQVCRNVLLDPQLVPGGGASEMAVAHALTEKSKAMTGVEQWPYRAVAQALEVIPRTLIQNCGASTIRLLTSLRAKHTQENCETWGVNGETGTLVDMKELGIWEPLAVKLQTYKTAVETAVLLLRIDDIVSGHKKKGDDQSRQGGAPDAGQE
UniProt P51946: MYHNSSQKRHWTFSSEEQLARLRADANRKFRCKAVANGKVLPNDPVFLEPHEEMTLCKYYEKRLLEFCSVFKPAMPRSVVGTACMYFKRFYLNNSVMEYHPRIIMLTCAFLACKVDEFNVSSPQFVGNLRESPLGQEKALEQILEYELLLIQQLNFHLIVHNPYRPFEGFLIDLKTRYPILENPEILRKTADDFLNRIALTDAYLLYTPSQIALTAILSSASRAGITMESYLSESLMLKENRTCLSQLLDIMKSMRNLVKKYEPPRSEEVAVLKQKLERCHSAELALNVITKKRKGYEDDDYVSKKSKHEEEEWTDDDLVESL
UniProt Q01518, whole entry, looked up: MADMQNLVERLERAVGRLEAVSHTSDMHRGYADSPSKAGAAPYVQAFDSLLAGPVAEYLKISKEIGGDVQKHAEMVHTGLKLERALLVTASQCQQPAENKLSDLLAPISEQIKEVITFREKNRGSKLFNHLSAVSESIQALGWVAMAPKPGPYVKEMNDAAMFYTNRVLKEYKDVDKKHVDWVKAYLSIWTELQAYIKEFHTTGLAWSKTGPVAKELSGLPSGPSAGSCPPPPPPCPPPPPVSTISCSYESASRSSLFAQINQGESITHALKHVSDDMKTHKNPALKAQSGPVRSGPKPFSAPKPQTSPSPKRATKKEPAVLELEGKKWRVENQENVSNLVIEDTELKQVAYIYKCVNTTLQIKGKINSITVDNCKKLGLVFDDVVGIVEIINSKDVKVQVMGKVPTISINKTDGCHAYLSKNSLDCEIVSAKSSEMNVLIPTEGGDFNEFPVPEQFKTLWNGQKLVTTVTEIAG
UniProt P16152: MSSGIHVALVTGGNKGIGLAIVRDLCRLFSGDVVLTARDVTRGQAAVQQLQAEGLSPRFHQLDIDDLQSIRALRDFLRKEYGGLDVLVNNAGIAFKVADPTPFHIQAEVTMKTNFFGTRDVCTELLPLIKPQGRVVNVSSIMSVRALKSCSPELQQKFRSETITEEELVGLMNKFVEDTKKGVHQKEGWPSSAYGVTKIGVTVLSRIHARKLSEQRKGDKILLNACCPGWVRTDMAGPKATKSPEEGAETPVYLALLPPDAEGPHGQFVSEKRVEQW
UniProt P42574: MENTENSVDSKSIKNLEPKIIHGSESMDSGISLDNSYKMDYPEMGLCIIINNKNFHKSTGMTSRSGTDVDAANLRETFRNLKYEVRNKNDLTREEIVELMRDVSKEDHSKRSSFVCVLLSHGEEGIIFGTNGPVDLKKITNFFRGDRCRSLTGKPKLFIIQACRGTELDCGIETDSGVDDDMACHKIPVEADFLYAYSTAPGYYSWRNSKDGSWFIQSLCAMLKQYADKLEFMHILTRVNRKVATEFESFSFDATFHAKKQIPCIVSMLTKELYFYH
UniProt Q8N163, whole entry, looked up: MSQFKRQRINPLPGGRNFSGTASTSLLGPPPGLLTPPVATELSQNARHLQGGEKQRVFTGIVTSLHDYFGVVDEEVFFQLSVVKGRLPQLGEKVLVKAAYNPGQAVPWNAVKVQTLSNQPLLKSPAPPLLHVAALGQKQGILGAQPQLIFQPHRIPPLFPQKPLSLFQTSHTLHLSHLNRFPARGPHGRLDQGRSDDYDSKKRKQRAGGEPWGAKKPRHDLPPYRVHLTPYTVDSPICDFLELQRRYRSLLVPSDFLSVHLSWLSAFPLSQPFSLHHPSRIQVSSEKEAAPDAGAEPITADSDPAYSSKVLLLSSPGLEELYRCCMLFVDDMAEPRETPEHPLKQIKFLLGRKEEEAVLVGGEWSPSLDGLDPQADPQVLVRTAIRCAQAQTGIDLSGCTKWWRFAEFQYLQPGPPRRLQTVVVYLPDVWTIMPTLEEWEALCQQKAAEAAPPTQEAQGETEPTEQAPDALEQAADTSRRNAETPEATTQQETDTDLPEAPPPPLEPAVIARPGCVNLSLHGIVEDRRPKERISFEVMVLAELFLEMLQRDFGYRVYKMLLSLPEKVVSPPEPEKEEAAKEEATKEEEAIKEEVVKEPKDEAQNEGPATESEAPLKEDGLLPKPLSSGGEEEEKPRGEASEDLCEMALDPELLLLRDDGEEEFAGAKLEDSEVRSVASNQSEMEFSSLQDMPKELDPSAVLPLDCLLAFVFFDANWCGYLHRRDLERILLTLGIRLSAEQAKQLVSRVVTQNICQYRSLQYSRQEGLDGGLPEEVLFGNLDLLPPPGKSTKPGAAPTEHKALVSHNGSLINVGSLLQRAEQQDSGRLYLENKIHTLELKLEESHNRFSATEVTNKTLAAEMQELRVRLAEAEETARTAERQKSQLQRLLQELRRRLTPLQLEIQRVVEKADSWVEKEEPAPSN
UniProt O75828: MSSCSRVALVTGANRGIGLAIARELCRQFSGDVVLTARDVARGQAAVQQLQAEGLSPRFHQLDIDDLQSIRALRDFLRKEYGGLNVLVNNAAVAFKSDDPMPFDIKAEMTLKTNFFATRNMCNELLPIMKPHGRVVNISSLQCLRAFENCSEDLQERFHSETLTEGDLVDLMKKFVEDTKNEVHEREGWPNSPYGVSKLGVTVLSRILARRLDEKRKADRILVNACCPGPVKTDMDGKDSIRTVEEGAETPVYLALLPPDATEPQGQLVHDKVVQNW
UniProt P04040: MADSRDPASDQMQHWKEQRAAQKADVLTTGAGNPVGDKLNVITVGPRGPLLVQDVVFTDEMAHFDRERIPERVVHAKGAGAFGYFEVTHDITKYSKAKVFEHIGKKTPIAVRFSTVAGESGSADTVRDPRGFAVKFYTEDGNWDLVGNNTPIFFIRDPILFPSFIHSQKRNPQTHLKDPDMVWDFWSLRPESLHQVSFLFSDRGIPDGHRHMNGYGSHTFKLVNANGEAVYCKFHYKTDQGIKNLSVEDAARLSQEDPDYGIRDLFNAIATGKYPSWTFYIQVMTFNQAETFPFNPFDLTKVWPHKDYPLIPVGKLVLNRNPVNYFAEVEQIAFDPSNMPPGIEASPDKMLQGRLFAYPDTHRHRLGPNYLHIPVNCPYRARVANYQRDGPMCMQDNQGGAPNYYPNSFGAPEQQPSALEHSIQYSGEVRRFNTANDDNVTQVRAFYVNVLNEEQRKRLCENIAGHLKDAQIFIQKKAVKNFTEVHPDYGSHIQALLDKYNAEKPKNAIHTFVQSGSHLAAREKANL
UniProt O95273: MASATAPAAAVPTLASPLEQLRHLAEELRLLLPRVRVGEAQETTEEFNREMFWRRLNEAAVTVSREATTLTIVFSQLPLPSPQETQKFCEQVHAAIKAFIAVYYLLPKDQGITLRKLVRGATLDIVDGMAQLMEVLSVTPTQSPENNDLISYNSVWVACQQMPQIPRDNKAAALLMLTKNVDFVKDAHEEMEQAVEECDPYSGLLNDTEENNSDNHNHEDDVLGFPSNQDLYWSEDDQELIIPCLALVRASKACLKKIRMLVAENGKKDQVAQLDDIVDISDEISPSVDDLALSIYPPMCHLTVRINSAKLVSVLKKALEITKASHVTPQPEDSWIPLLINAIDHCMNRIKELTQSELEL
UniProt P49662: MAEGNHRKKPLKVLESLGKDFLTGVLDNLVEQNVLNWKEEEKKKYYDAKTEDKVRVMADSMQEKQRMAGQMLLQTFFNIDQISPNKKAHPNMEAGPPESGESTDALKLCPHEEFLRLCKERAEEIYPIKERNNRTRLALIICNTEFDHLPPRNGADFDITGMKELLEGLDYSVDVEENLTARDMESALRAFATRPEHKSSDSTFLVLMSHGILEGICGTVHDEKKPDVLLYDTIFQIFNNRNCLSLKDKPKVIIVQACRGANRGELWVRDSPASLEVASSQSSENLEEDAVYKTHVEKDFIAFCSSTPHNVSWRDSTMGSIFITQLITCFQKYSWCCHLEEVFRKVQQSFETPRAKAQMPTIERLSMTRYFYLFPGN

The targets below were run with CC1Cc2ccccc2N1C(=O)C1CCCN(C1)C(=O)CCl (mixture of isomers) [TRIM25 ligand 11 (diastereomer mixture)] (assay: probe-labelled cysteine peptide fold change vs DMSO (competition) (log2 fold change); higher = less target engagement (more negative = stronger competition)). Conditions: 50 µM; THP-1; incubation time: 4 h.
With “CAPZA2_P47755_111_EATDPRPCEVENAVESWR (UniProt P47755)” the “probe-labelled cysteine peptide fold change” value was 0.0405. For “CCDC58_Q4VC31_10_AAPSGGVNCEEFAEFQELLK (UniProt Q4VC31)”, the “probe-labelled cysteine peptide fold change” value was -0.0215. “CCS_O14618_113_CLIEGTIDGLEPGLHGLHVHQYGDLTNNCNSCGNHFNPDGASHGGPQDSDR (UniProt O14618)” was tested, and the “probe-labelled cysteine peptide fold change” value was 0.0286. “CAPN7_Q9Y6W3_242_FAYPMPFCDR (UniProt Q9Y6W3)” was tested, and the “probe-labelled cysteine peptide fold change” value was -0.204. With “CCT3_P49368_475_HTQENCETWGVNGETGTLVDMK (UniProt P49368)” the “probe-labelled cysteine peptide fold change” value was -0.0947. “CCNH_P51946_244_TCLSQLLDIMK (UniProt P51946)” was tested, and the “probe-labelled cysteine peptide fold change” value was 0.00237. In the case of “CAP1_Q01518_416_VQVMGKVPTISINKTDGCHAYLSK (UniProt Q01518)”, the “probe-labelled cysteine peptide fold change” value is reported as -0.386. With “CBR1_P16152_226+227_ILLNACCPGWVR (UniProt P16152)” the “probe-labelled cysteine peptide fold change” value was -0.171. “CASP3_P42574_47_MDYPEMGLCIIINNK (UniProt P42574)” was tested, and the “probe-labelled cysteine peptide fold change” value was -0.158. For “CCAR2_Q8N163_515_PGCVNLSLHGIVEDR (UniProt Q8N163)”, the “probe-labelled cysteine peptide fold change” value was 0.0205. In the case of “CCT3_P49368_213_IPGGIIEDSCVLR (UniProt P49368)”, the “probe-labelled cysteine peptide fold change” value is reported as 0.0929. “CBR3_O75828_227_ILVNACCPGPVK (UniProt O75828)” was tested, and the “probe-labelled cysteine peptide fold change” value was -0.0291. With “CAT_P04040_377_LGPNYLHIPVNCPYR (UniProt P04040)” the “probe-labelled cysteine peptide fold change” value was 0.0332. With “CCNDBP1_O95273_89_FCEQVHAAIK (UniProt O95273)” the “probe-labelled cysteine peptide fold change” value was 0.28. “CASP4_P49662_337_YSWCCHLEEVFRK (UniProt P49662)” was tested, and the “probe-labelled cysteine peptide fold change” value was 0.235.
